These are literature values, as cited in US20250320462A1, “METHODS AND APPARATUSES FOR TESTING HEPATOCYTE TOXICITY USING MICROORGANOSPHERES” (XILIS, INC., priority 2022, published 2025).

For this data set, the system named is 3D Hepatocyte Spheroid. The settings on record: values above 199 show no toxicity; read-out: 3D Hepatocyte Spheroid pIC50 (converted); cited from earlier work.

On to `CCCCc1oc2ccccc2c1C(=O)c1cc(I)c(OCCN(CC)CC)c(I)c1` [Amiodarone], for which the IC50 was 27.5 µM.
